Data on six substances can be found in publication PMC10362501.

Amino acid sequences for entries named in this document (tags omitted). A change or cut given only in a name is not applied to a line headed by its entry.
UniProt P13533: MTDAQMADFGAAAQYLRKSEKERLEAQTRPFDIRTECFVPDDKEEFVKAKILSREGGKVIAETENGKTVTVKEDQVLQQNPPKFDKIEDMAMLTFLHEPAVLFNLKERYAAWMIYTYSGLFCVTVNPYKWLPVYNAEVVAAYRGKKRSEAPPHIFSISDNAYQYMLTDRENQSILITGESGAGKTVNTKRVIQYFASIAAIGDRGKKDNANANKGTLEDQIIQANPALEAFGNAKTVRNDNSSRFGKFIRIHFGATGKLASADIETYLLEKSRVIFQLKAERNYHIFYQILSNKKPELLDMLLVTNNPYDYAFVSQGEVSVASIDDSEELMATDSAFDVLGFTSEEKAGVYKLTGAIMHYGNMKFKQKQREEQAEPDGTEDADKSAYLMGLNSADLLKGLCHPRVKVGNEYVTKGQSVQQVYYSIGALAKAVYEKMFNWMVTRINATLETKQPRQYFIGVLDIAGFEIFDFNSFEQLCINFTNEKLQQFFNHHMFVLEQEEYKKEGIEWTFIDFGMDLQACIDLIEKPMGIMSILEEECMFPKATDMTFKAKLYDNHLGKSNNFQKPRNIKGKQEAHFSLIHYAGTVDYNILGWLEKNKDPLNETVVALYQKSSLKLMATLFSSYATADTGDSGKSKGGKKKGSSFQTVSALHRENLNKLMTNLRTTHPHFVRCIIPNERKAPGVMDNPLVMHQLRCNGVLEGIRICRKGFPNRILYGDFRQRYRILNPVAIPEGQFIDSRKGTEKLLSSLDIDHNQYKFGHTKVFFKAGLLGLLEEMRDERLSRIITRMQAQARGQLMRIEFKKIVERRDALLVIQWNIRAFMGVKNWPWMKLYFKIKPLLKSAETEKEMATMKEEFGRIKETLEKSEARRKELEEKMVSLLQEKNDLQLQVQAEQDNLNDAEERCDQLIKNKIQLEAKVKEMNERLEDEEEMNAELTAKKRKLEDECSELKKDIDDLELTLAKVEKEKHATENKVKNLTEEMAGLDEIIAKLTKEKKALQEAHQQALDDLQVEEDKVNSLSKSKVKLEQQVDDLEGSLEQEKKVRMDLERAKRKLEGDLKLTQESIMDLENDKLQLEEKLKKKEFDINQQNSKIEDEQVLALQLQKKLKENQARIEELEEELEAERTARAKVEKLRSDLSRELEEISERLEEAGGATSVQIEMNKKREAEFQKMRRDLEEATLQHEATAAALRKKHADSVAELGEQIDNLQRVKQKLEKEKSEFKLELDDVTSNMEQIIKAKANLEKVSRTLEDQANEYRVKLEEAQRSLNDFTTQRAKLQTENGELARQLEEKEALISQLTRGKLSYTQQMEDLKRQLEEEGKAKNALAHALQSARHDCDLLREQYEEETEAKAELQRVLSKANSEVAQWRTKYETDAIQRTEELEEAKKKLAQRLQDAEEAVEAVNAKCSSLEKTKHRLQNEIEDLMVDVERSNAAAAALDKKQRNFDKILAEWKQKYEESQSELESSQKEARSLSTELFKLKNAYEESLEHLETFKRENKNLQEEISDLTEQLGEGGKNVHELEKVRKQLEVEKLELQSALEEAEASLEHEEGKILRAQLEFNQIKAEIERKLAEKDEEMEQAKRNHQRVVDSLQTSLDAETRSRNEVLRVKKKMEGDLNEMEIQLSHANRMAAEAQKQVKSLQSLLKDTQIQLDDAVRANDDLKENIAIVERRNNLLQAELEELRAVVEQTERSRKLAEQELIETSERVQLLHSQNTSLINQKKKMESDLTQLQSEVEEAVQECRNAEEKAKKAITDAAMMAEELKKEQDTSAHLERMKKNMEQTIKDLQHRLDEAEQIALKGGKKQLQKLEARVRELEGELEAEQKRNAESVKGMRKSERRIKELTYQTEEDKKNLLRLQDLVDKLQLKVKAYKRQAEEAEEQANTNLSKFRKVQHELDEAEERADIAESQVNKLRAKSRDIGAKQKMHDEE
UniProt Q96AC1: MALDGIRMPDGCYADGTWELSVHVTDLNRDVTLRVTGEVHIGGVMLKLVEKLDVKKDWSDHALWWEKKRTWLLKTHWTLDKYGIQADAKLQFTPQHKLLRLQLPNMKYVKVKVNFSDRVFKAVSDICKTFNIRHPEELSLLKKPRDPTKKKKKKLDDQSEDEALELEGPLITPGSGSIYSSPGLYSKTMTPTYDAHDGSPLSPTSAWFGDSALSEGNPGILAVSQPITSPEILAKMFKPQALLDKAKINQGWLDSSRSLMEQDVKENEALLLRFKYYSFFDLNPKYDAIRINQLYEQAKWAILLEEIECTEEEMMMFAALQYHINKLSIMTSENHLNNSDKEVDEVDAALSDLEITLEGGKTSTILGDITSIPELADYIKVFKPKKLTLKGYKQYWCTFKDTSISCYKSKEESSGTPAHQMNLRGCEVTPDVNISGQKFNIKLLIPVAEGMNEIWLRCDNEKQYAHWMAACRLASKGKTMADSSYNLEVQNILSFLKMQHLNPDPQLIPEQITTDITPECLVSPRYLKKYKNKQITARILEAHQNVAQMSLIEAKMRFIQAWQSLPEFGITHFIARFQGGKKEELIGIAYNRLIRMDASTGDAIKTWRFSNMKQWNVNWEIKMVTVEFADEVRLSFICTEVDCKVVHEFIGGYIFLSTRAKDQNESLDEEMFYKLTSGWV
UniProt P49023: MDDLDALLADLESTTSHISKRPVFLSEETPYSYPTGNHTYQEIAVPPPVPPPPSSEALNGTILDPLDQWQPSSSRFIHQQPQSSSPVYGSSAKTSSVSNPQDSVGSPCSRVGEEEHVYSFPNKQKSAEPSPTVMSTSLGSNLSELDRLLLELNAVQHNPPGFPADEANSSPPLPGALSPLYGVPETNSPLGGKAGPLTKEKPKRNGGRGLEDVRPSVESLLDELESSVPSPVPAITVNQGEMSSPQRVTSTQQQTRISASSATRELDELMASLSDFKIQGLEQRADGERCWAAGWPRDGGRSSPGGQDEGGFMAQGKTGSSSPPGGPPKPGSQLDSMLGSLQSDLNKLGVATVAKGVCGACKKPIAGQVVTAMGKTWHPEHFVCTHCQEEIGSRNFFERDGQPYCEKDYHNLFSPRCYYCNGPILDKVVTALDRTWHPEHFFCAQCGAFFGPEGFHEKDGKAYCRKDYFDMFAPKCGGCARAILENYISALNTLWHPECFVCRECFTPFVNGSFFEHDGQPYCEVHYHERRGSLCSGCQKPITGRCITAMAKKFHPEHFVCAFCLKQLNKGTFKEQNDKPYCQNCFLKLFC
UniProt P08238: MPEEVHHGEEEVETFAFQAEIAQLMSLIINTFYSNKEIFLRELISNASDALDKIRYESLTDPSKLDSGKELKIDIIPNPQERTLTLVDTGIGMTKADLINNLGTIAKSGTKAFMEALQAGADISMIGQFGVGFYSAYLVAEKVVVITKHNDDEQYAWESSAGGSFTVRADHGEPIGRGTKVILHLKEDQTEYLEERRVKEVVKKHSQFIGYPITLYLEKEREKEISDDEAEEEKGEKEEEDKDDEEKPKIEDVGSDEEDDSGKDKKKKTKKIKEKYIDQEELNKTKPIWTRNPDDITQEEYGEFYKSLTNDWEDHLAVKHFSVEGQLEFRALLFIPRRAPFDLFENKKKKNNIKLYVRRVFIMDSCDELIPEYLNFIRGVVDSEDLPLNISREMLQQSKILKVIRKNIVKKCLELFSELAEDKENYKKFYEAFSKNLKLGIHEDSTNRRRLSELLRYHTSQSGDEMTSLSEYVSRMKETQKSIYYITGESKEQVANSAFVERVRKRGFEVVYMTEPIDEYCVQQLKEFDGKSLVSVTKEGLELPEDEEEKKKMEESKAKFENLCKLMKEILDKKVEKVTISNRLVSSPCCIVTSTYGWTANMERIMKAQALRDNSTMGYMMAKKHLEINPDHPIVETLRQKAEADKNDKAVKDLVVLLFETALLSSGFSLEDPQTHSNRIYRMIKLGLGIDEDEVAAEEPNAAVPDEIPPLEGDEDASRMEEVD
UniProt P05556: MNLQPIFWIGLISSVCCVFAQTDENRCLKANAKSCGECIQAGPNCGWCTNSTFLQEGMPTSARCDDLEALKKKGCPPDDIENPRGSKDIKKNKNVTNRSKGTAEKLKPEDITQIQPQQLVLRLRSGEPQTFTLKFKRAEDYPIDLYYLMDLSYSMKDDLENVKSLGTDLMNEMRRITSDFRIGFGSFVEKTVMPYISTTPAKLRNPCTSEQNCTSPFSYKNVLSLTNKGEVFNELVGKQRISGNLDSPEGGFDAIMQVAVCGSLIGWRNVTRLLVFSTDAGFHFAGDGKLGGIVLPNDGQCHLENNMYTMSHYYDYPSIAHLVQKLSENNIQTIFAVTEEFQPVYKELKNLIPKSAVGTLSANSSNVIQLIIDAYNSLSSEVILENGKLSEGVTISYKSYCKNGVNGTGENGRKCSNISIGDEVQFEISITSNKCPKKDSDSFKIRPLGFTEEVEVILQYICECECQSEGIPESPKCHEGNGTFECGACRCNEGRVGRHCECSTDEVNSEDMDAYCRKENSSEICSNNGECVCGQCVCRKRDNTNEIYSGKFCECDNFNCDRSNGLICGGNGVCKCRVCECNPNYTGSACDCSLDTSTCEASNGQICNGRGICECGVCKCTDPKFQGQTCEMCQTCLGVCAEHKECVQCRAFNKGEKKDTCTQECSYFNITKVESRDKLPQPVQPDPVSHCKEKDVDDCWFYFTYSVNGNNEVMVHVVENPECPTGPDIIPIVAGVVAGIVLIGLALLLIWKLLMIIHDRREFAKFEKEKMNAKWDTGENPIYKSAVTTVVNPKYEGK

These are yes or no findings as the source states them, for the method shown. Binding seen in cells or lysates may run through a third protein. Some binding calls cover weakened binding; strength is not graded here. Tags and fused reporters may be left off the sequences shown.

The target in this experiment is T1, UNC45B-FLAG (human) (UniProt Q8IWX7).
T1 sequence: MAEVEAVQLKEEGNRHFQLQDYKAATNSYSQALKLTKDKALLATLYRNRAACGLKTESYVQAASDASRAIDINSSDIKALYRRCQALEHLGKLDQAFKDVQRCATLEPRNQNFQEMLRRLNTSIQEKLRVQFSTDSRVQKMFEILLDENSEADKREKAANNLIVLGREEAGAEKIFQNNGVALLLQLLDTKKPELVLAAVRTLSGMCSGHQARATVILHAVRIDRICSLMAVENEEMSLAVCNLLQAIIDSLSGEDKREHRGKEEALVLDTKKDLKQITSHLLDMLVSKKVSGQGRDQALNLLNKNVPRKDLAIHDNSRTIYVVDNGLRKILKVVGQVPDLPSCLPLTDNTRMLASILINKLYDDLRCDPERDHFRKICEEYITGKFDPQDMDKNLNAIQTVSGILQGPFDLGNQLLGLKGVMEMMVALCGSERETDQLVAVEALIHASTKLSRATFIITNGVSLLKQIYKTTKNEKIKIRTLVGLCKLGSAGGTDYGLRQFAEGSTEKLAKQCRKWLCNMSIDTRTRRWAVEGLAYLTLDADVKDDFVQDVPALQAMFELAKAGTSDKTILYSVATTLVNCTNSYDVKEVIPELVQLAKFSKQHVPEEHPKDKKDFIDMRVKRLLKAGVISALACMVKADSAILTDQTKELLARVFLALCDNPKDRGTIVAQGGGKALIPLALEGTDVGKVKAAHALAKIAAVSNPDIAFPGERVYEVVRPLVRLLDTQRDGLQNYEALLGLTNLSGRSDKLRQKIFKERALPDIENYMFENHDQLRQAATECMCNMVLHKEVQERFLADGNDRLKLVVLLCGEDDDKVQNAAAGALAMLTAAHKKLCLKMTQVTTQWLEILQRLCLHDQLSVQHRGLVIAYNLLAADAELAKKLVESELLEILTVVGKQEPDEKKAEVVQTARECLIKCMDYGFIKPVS
Briefly: co-IP; UNC45B-FLAG pulled down with anti-FLAG beads from lysates of WT^UNC45B-OE-CMs, WT-CMs as negative control; eluates analysed by SDS-PAGE and western blot.
Consider “muscle myosin MYH6 (from UniProt P13533 1-1939)”, for which the binding entry is on record as “binds”.
The same measure for KINDLIN2 (from UniProt Q96AC1 1-680): “binds”; for HSP90AA1 (from UniProt P07900 1-732): “binds”.
The same measure for paxillin (from UniProt P49023 1-591): “no binding”.
The value for HSP90AB1 (from UniProt P08238 1-724) was “binds”; that for “ITGB1 (from UniProt P05556 21-798) (receptor)” was “no binding”.
